Data source: PubChem BioAssay AID1259331 (Drosophila RNAi Screening Center, 2017)
Test: 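Genes whose knock-down changes cell survival under toxic zinc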 (primary screen). Cells: Drosophila S2R+ cells. Reagent: long dsRNA against Drosophila genes. Duration: 5 days (4 days knock-down, then 1 day zinc). Conditions: zinc chloride at 15 mM final level for 1 day. Measured: 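Luminescent ATP assay standing in for viability; Z score is the mean over three replicate plates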. Direction: mean Z score: higher = more ATP than other wells, better survival under zinc; ATP luminescence: higher = more ATP, more viable cells. Active means: 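a reagent is called a hit when its Z score is above 1.5 or below -1.5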. Calls: active = hit, ATP up or down; inactive = not a hit.
The whole screen tested about 3,100 reagents; below is an unselected part. 126 of them (4.1%) count as active. 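Calls are per reagent; zinc was so toxic that few knock-downs lowered ATP further, so most hits raise ATP.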 Raw values are not corrected between plates. Entries without a mark were called inactive. Not stated in the record: the amount of reagent.

The first 3 records as a preview:
predicted target	PubChem SID	mean Z score	ATP luminescence, replicate 1	ATP luminescence, replicate 2
spdo	SID104193780	0.676	86410	72620
spdo	SID104203087	-0.218	70750	45097
CG31259	SID104194158	-0.06	41344	58542

The listing, from the first entry:
predicted target	PubChem SID	mean Z score	ATP luminescence, replicate 1	ATP luminescence, replicate 2
spdo	SID104193780	0.676	86410	72620
spdo	SID104203087	-0.218	70750	45097
CG31259	SID104194158	-0.06	41344	58542
CG31259	SID104217389	0.344	62810	59226
Ncc69	SID104190204	-0.406	30936	27799
Ncc69	SID104202799	-0.00568	56602	66095
CG33337	SID104205544	0.278	53052	67063
CG33337	SID104217296	0.022	57365	61695
Appl	SID104206020	0.311	73323	58197
Appl	SID104217016	0.199	46211	57832
Trp1	SID104183257	0.841	63462	40519
Trp1	SID104203338	-0.148	51216	54064
CG13409	SID104194377	-0.0704	36668	56585
CG13409	SID104217311	0.173	69893	55007
Nrx-IV	SID104191030	-0.413	28673	29759
Nrx-IV	SID104217398	0.714	64490	68212
CG33310	SID104181689	-0.0515	46520	42936
CG33310	SID104203476	-0.0868	49418	70888
Cals	SID104196988	-0.392	44514	37999
Cals	SID104201348	0.0862	49212	48012
ZnT77C	SID104191558	-0.268	69430	59191
ZnT77C	SID104191559	0.371	45440	50412
Oatp58Dc	SID104184155	-0.175	27076	31262
Oatp58Dc	SID104217261	0.144	66257	59226
ppk19	SID104195113	0.0863	76351	58420
ppk19	SID104217349	-0.368	50944	51109
EloA	SID104195901	0.813	57305	53464
EloA	SID104202944	2.15 (active)	82499	88982
GluRIA	SID104190968	-0.216	75051	56722
st	SID104191191	-0.383	27456	29239
st	SID104206801	-0.894	42405	52930
GABA-B-R2	SID104206671	0.369	69481	63890
GABA-B-R2	SID104217036	-0.0762	57700	46211
Or19a	SID104200476	-0.0949	45868	40931
Cpes	SID104206047	-0.3	57991	51989
Hacd2	SID104182973	-1.24	35595	34090
Sdr	SID104195309	-0.292	41413	41222
Sdr	SID104214505	-0.183	46805	41633
Sdr	SID104214506	0.61	48097	72362
na	SID104199431	1.28	87766	86822
na	SID104208372	-0.0293	49865	44617
Gr28b	SID104182083	-0.322	46609	39833
Gr28b	SID104182084	-0.255	76992	57374
Gr28b	SID104208003	0.439	68298	68023
NijC	SID104194643	-0.357	40639	54973
NijC	SID104207598	0.045	61695	62484
